# Measured values: PMC9569496
# No constants are given. Whether binding was seen depends on the method and setting. Binding seen in cells or lysates may run through a third protein. Binding can be weak; no strength is given.
# Target: T1, human cyclin H (human (endogenous in HFFs)) (UniProt P51946)
# T1 sequence: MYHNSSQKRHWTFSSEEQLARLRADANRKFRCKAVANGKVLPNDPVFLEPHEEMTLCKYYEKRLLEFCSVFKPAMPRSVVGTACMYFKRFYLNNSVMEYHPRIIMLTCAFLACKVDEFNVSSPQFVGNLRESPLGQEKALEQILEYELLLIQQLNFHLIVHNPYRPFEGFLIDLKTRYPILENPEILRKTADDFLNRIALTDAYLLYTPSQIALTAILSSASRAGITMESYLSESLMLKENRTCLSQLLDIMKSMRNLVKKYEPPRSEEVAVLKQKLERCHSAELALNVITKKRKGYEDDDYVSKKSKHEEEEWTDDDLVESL
# Assay: co-IP; HFFs in T75 flasks infected with HCMV TB40-IE2-YFP WT or ORF-UL97 point mutants, harvested 4-7 d.p.i.; cyclins T1, H, B1 immunoprecipitated with specific antibodies, pUL97 detected by Western blot; chicken Fc fragment as specificity control
substance,measurement,value
"HCMV protein kinase pUL97, strain TB40 wild type (TB40-IE2-YFP) (human cytomegalovirus, strain TB40) (enzyme)",binding,binds
